Reference: the supplement of paper PMC12823440, “Inhibitors supercharge kinase turnover through native proteolytic circuits” (Nature, 2025)
Where a name gives a salt, the structure may show the parent alone. The list shows a part of the results. Hit calls seldom repeat between salt and free forms of one compound.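 In K562 cells expressing nanoluciferase-fused kinases, luminescence was recorded at 4 h intervals between 2 and 18 h, normalized as percent of control with DMSO at 100% and a positive control at 0%. A significant (2 sigma) signal drop marks a time point as decreased. The authors' rule for a hit is not shown and takes in more than the number of time points.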

The chains behind the UniProt entries cited, without tags or fusion partners. Where a name states a change or a piece, a line headed by the entry shows the natural chain unless it says otherwise.
UniProt P29317, whole entry: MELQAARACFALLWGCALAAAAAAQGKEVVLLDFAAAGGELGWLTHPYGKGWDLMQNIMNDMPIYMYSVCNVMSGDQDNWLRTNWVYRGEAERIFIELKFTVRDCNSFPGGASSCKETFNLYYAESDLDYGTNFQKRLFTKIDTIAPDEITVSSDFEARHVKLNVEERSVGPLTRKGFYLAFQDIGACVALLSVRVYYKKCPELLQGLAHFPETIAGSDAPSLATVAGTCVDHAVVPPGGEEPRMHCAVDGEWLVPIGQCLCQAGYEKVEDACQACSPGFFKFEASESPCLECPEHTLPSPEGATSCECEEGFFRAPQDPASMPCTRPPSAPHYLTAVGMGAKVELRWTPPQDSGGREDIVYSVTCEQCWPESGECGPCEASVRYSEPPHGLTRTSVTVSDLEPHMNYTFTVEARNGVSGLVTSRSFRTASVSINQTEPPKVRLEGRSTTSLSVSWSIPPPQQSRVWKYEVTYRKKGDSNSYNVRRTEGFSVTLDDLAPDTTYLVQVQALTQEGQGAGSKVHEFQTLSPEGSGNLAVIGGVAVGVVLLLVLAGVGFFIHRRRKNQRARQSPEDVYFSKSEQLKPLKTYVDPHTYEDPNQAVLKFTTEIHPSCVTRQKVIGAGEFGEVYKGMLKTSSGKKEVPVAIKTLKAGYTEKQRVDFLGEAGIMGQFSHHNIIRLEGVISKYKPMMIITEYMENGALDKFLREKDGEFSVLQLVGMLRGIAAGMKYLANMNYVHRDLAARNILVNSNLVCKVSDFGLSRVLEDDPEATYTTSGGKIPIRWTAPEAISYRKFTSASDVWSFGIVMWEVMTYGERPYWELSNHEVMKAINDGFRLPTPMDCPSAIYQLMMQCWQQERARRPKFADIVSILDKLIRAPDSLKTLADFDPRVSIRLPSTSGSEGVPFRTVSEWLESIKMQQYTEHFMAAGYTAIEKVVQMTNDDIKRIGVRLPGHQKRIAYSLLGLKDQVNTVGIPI
UniProt Q15303, whole entry R711C: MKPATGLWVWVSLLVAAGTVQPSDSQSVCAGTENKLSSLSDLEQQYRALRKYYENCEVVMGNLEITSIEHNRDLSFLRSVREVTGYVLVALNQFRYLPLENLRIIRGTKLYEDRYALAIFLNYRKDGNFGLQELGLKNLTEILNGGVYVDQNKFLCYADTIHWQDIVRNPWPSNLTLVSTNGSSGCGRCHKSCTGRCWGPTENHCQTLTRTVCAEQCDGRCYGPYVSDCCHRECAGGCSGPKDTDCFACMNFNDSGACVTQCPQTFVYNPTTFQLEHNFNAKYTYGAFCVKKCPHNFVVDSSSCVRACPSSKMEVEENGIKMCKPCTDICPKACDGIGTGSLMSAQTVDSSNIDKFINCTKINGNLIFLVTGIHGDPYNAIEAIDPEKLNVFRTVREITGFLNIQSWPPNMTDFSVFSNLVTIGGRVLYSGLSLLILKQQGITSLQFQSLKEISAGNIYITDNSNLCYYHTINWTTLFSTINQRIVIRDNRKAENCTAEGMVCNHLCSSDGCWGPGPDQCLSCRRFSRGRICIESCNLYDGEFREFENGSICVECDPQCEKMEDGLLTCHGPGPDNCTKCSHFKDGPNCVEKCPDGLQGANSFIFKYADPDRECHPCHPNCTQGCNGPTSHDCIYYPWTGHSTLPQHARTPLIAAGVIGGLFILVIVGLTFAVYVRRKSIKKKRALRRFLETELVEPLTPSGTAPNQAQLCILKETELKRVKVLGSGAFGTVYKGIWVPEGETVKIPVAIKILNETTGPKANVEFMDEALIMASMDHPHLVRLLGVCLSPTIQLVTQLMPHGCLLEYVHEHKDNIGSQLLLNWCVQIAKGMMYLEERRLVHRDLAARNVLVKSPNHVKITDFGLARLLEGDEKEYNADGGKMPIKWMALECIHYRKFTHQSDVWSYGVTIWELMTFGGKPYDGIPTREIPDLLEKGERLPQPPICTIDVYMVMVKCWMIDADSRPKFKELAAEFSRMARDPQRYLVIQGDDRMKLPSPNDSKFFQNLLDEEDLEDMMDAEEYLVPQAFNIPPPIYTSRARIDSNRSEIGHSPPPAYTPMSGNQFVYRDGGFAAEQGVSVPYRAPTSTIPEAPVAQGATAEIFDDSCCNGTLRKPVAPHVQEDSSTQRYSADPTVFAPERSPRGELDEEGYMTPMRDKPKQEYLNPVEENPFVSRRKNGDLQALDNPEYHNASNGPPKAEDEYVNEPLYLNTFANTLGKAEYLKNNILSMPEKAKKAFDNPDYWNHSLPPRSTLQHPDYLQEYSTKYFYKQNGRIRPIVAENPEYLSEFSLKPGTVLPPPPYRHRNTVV
UniProt O75460: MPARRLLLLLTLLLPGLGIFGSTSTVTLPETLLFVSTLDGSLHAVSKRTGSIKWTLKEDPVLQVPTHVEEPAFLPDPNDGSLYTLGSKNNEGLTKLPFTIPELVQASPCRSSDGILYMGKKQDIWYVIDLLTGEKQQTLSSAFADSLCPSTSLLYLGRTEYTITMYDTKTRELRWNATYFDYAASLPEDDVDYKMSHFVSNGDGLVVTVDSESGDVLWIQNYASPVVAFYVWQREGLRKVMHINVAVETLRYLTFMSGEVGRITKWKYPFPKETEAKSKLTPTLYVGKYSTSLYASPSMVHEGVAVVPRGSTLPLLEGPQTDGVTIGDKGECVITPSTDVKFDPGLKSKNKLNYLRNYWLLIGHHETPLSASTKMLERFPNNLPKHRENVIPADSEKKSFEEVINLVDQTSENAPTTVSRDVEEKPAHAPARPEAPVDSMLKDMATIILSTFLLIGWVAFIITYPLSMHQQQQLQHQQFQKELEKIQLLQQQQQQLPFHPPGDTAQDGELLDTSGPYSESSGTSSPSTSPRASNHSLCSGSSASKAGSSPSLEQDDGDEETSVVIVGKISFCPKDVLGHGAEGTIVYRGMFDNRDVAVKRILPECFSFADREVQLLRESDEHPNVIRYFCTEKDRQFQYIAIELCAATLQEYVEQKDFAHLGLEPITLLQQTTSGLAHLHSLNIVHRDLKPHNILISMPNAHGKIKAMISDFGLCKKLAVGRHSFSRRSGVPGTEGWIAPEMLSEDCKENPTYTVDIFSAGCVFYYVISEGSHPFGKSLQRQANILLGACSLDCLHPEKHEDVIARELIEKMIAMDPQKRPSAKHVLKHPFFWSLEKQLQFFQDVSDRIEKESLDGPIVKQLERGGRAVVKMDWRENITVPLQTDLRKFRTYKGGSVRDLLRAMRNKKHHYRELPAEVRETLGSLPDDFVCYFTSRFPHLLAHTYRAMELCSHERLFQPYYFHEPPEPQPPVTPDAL
UniProt P11362, whole entry, looked up: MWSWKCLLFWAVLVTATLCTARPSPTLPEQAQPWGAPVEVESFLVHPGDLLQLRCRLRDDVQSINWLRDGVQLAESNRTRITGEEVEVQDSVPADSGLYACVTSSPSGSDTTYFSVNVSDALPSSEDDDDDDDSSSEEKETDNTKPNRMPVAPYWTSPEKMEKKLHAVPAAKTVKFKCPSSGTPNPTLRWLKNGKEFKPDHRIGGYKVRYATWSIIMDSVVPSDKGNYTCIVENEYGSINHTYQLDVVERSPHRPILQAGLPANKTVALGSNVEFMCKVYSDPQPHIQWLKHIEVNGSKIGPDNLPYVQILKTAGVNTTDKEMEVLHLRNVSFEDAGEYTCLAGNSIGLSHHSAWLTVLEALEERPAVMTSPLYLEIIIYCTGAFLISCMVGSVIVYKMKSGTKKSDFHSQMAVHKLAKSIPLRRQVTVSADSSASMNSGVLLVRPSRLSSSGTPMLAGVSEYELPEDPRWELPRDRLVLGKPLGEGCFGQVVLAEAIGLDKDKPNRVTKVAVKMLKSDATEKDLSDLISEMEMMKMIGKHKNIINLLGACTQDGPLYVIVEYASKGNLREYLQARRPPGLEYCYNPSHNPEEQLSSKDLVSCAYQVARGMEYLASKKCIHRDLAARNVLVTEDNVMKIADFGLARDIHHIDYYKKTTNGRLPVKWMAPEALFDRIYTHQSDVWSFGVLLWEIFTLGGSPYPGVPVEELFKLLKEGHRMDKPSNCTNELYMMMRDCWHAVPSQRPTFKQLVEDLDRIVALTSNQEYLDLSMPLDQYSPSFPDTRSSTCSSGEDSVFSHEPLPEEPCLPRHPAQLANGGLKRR
UniProt P21802, whole entry, looked up: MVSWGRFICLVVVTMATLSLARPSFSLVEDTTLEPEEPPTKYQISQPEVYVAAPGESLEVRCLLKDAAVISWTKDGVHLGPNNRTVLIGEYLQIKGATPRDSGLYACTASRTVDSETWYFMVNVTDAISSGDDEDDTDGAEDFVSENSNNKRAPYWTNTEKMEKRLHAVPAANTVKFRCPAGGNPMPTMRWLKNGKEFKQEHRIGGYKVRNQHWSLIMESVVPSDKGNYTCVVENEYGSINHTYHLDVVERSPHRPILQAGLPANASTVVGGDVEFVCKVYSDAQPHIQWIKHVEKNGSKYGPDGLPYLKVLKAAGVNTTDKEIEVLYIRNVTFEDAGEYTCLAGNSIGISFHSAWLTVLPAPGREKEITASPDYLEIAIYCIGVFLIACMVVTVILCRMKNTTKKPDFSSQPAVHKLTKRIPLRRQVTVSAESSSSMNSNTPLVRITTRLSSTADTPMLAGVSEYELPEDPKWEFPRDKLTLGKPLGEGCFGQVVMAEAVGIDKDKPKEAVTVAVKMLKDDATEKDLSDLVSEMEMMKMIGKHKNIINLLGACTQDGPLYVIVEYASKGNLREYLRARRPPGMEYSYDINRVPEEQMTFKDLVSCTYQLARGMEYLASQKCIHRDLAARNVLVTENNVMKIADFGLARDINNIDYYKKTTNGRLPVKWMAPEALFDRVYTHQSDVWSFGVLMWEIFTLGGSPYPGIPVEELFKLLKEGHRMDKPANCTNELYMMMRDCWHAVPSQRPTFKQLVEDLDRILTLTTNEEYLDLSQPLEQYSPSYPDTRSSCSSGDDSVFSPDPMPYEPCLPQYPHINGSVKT
UniProt P14616: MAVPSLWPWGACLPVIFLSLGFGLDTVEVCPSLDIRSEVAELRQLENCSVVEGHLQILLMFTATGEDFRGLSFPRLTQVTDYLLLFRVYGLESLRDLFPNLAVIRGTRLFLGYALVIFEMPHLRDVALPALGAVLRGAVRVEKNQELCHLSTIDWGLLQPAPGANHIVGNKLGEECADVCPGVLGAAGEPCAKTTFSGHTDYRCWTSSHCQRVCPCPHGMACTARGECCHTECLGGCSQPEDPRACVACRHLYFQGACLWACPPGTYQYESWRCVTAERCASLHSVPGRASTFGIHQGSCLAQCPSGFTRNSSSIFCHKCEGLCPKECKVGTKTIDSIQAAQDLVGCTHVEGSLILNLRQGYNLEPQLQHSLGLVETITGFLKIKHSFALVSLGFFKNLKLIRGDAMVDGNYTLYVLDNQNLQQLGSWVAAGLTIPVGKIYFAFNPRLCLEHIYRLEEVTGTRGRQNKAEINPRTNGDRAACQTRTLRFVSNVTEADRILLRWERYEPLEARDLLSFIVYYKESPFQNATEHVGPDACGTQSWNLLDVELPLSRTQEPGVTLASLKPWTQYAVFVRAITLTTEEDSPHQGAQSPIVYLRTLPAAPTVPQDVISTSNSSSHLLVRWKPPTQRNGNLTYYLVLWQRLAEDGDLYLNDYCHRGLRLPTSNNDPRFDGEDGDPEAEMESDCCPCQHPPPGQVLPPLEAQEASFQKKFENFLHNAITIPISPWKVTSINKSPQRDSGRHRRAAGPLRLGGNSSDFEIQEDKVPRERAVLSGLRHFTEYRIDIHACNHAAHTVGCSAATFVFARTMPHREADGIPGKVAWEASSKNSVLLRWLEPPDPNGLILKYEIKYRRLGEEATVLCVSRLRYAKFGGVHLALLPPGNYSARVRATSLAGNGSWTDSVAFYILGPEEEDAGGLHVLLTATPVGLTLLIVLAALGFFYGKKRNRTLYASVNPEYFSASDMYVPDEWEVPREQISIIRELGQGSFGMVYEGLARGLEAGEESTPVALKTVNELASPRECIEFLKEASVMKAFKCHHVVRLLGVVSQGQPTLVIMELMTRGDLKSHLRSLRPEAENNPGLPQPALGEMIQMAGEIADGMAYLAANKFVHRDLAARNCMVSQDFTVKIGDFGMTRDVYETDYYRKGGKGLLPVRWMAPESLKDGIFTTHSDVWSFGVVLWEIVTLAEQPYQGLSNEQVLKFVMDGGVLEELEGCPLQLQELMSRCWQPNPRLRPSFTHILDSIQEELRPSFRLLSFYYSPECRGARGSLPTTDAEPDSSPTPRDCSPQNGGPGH

Experiments:
Assay in all cases: kinase-Nluc reporter destabilization hit call (1 = scored as downregulated) (binary); higher = compound decreases kinase abundance
Conditions in all cases: K562; 2-18 h
[1] = target: EGFR (UniProt P00533)
[2] = target: EGFR_G719S (UniProt P00533)
[3] = target: EGFR_G719S_T790M (UniProt P00533)
[4] = target: EGFR_L718V (UniProt P00533)
[5] = target: EGFR_L858R (UniProt P00533)
[6] = target: EGFR_L861Q (UniProt P00533)
[7] = target: EGFR_T790M (UniProt P00533)
[8] = target: EPHA2 (UniProt P29317)
[9] = target: ERBB3 (UniProt P21860)
[10] = target: ERBB4_R711C (clone: ERBB4_mut) (UniProt Q15303)
[11] = target: ERN1 (UniProt O75460)
[12] = target: FGFR1 (UniProt P11362)
[13] = target: FGFR2 (UniProt P21802)
[14] = target: FGFR3 (UniProt P22607)
[15] = target: FGR (UniProt P09769)
[16] = target: FLT3 (UniProt P36888)
[17] = target: FYN (UniProt P06241)
[18] = target: GSK3A (UniProt P49840)
[19] = target: HER2 (UniProt P04626)
[20] = target: INSRR (UniProt P14616)

Measured: kinase-Nluc reporter destabilization hit call

Cn1cc(-c2nc(N[C@@H]3CCCC[C@@H]3N)c(F)c3c2C(=O)NC3)cn1 [TAK-659 (hydrochloride)] (2 µM)
inactive: [1] 0 | [2] 0 | [3] 0 | [4] 0 | [5] 0 | [6] 0 | [7] 0 | [8] 0 | [9] 0 | [10] 0 | [11] 0 | [12] 0 | [13] 0 | [14] 0 | [15] 0 | [16] 0 | [17] 0 | [18] 0 | [19] 0 | [20] 0

COc1ccc2nc3ccc(OC)cc3c(SCCCN)c2c1 (10 µM)
inactive: [1] 0 | [2] 0 | [3] 0 | [4] 0 | [5] 0 | [6] 0 | [7] 0 | [8] 0 | [9] 0 | [10] 0 | [11] 0 | [12] 0 | [13] 0 | [14] 0 | [15] 0 | [16] 0 | [17] 0 | [18] 0 | [19] 0 | [20] 0

Cc1cccc(CC(=O)N2CCc3c2ccc(-c2cn(C)c4ncnc(N)c24)c3F)n1 (10 µM)
inactive: [1] 0 | [2] 0 | [3] 0 | [4] 0 | [5] 0 | [6] 0 | [7] 0 | [8] 0 | [9] 0 | [10] 0 | [11] 0 | [12] 0 | [13] 0 | [14] 0 | [15] 0 | [16] 0 | [17] 0 | [18] 0 | [19] 0 | [20] 0

Cc1ncc(-c2cc(F)c(O)c(F)c2)cc1-c1cc(F)c(O)c(F)c1 (10 µM)
inactive: [1] 0 | [2] 0 | [3] 0 | [4] 0 | [5] 0 | [6] 0 | [7] 0 | [8] 0 | [9] 0 | [10] 0 | [11] 0 | [12] 0 | [13] 0 | [14] 0 | [15] 0 | [16] 0 | [17] 0 | [18] 0 | [19] 0 | [20] 0

CCOC(=O)c1c(C)[nH]c(C=C2C(=O)Nc3ccccc32)c1C (10 µM)
inactive: [1] 0 | [2] 0 | [3] 0 | [4] 0 | [5] 0 | [6] 0 | [7] 0 | [8] 0 | [9] 0 | [10] 0 | [11] 0 | [12] 0 | [13] 0 | [14] 0 | [15] 0 | [16] 0 | [17] 0 | [18] 0 | [19] 0 | [20] 0

CN(C)c1ccc(/C=C2\C(=O)Nc3ccccc32)c2ccccc12 (10 µM)
inactive: [1] 0 | [2] 0 | [3] 0 | [4] 0 | [5] 0 | [6] 0 | [7] 0 | [8] 0 | [9] 0 | [10] 0 | [11] 0 | [12] 0 | [13] 0 | [14] 0 | [15] 0 | [16] 0 | [17] 0 | [18] 0 | [19] 0 | [20] 0

Cn1c(N2CCO[C@@H](c3ccc(F)cc3)C2)nc(-c2ccncn2)cc1=O (10 µM)
inactive: [1] 0 | [2] 0 | [3] 0 | [4] 0 | [5] 0 | [6] 0 | [7] 0 | [8] 0 | [9] 0 | [10] 0 | [11] 0 | [12] 0 | [13] 0 | [14] 0 | [15] 0 | [16] 0 | [17] 0 | [18] 0 | [19] 0 | [20] 0

CCc1cc(Nc2nccc(-c3c(-c4ccc(OC)c(C(=O)Nc5c(F)cccc5F)c4)nc4ccccn34)n2)c(OC)cc1N1CCC(N2CCN(S(C)(=O)=O)CC2)CC1 (2.5 µM)
inactive: [1] 0 | [2] 0 | [3] 0 | [4] 0 | [5] 0 | [6] 0 | [7] 0 | [8] 0 | [9] 0 | [10] 0 | [11] 0 | [12] 0 | [13] 0 | [14] 0 | [15] 0 | [16] 0 | [17] 0 | [18] 0 | [19] 0 | [20] 0

CC(C)(Oc1ccc(Cl)cc1)C(=O)Nc1ccc(OCc2ccc(C#N)cc2)cc1 [AMPK activator 4] (10 µM)
inactive: [1] 0 | [2] 0 | [3] 0 | [4] 0 | [5] 0 | [6] 0 | [7] 0 | [8] 0 | [9] 0 | [10] 0 | [11] 0 | [12] 0 | [13] 0 | [14] 0 | [15] 0 | [16] 0 | [17] 0 | [18] 0 | [19] 0 | [20] 0

CN(C)c1cc[n+](Cc2ccc(OCCOc3ccc(C[n+]4ccc(N(C)C)cc4)cc3)cc2)cc1 (10 µM)
inactive: [1] 0 | [2] 0 | [3] 0 | [4] 0 | [5] 0 | [6] 0 | [7] 0 | [8] 0 | [9] 0 | [10] 0 | [11] 0 | [12] 0 | [13] 0 | [14] 0 | [15] 0 | [16] 0 | [17] 0 | [18] 0 | [19] 0 | [20] 0

CC(=O)O[C@@H]1[C@@H](OC(C)=O)[C@@H](O)[C@H](Oc2c(-c3ccc(O)cc3)oc3cc(O)cc(O)c3c2=O)O[C@H]1C (10 µM)
inactive: [1] 0 | [2] 0 | [3] 0 | [4] 0 | [5] 0 | [6] 0 | [7] 0 | [8] 0 | [9] 0 | [10] 0 | [11] 0 | [12] 0 | [13] 0 | [14] 0 | [15] 0 | [16] 0 | [17] 0 | [18] 0 | [19] 0 | [20] 0

CCC[C@H](C)Oc1nc(N)c2[nH]c(=O)n(CCCCCN3CCCCC3)c2n1 (10 µM)
inactive: [1] 0 | [2] 0 | [3] 0 | [4] 0 | [5] 0 | [6] 0 | [7] 0 | [8] 0 | [9] 0 | [10] 0 | [11] 0 | [12] 0 | [13] 0 | [14] 0 | [15] 0 | [16] 0 | [17] 0 | [18] 0 | [19] 0 | [20] 0

Cc1nc2c(NCc3cccc(S(C)(=O)=O)c3)nccn2c1-c1ccc(O)c(F)c1 (10 µM)
inactive: [1] 0 | [2] 0 | [3] 0 | [4] 0 | [5] 0 | [6] 0 | [7] 0 | [8] 0 | [9] 0 | [10] 0 | [11] 0 | [12] 0 | [13] 0 | [14] 0 | [15] 0 | [16] 0 | [17] 0 | [18] 0 | [19] 0 | [20] 0

CN1C(=O)[C@@H](NC(=O)c2cc(Cc3ccccc3)on2)COc2ccccc21 (10 µM)
inactive: [1] 0 | [2] 0 | [3] 0 | [4] 0 | [5] 0 | [6] 0 | [7] 0 | [8] 0 | [9] 0 | [10] 0 | [11] 0 | [12] 0 | [13] 0 | [14] 0 | [15] 0 | [16] 0 | [17] 0 | [18] 0 | [19] 0 | [20] 0

2 successive records already listed:
CN(C)c1cc[n+](Cc2ccc(OCCOc3ccc(C[n+]4ccc(N(C)C)cc4)cc3)cc2)cc1 (10 µM)
inactive: [1] 0 | [2] 0 | [3] 0 | [4] 0 | [5] 0 | [6] 0 | [7] 0 | [8] 0 | [9] 0 | [10] 0 | [11] 0 | [12] 0 | [13] 0 | [14] 0 | [15] 0 | [16] 0 | [17] 0 | [18] 0 | [19] 0 | [20] 0

CC(=O)O[C@@H]1[C@@H](OC(C)=O)[C@@H](O)[C@H](Oc2c(-c3ccc(O)cc3)oc3cc(O)cc(O)c3c2=O)O[C@H]1C (10 µM)
inactive: [1] 0 | [2] 0 | [3] 0 | [4] 0 | [5] 0 | [6] 0 | [7] 0 | [8] 0 | [9] 0 | [10] 0 | [11] 0 | [12] 0 | [13] 0 | [14] 0 | [15] 0 | [16] 0 | [17] 0 | [18] 0 | [19] 0 | [20] 0

The list goes on:

O=C(COc1ccc(Cl)cc1)NC1CCC(NC(=O)COc2ccc(Cl)cc2)CC1 (stereo not drawn) [ISRIB (trans-isomer)] (10 µM)
inactive: [1] 0 | [2] 0 | [3] 0 | [4] 0 | [5] 0 | [6] 0 | [7] 0 | [8] 0 | [9] 0 | [10] 0 | [11] 0 | [12] 0 | [13] 0 | [14] 0 | [15] 0 | [16] 0 | [17] 0 | [18] 0 | [19] 0 | [20] 0

Fc1ccc(Cl)cc1-c1nc(Nc2ccncc2)c2nccnc2n1 (10 µM)
inactive: [1] 0 | [2] 0 | [3] 0 | [4] 0 | [5] 0 | [6] 0 | [7] 0 | [8] 0 | [9] 0 | [10] 0 | [11] 0 | [12] 0 | [13] 0 | [14] 0 | [15] 0 | [16] 0 | [17] 0 | [18] 0 | [19] 0 | [20] 0
